Some of the results follow. The data scatter; read single values as rough.
Target: T1, CARM1 C26 (UniProt Q86X55)
T1 sequence (whole entry): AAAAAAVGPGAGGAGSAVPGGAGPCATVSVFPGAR
Experiment: log2 mean competition ratio of IA-DTB cysteine labelling (DMSO/compound) (log2 ratio); higher = stronger cysteine engagement by compound
Conditions: 50 µM; treatment time: 4 h; cell line lysate: HEK293T
Procedure: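 IA-DTB competitive cysteine chemoproteomics in HEK293T RIPA lysate. Lysates were treated with compound 29 or 30 at 50 or 200 µM for 4 h, then IA-DTB (500 µM, 1 h), trypsin-digested, NeutrAvidin-enriched and analysed by diaPASEF. Competition ratio = intensity DMSO / intensity compound (n=4 treated, n=64 DMSO); binding: mean log2 CR ≥ 1 and p ≤ 0.05 plus QC filters. Target is the cysteine site.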

SMILES | log2 mean competition ratio
O=C(CCl)N[C@H]1CCCc2ccccc21 | 0.509
O=C(CCl)N[C@@H]1CCCc2ccccc21 | 0.0738

Same assay, conditions: 200 µM; treatment time: 4 h; cell line lysate: HEK293T

SMILES | log2 mean competition ratio
O=C(CCl)N[C@H]1CCCc2ccccc21 | -0.113
O=C(CCl)N[C@@H]1CCCc2ccccc21 | -0.295

— the supplement of paper PMC11732987, “Enantioselective OTUD7B fragment discovery through chemoproteomics screening and high-throughput optimisation” (Communications Chemistry, 2025)
